Reference: the supplement of paper PMC10849652
Some of the results follow.

The chains behind the UniProt entries cited, without tags or fusion partners. Where a name states a change or a piece, a line headed by the entry shows the natural chain unless it says otherwise.
UniProt Q9Y5Z4: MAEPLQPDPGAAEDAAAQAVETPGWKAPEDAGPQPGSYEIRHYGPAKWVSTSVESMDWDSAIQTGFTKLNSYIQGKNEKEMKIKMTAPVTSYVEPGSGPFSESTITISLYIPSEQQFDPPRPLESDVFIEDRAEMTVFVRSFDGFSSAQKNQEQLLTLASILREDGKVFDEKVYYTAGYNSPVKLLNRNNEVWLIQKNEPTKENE
UniProt P13807: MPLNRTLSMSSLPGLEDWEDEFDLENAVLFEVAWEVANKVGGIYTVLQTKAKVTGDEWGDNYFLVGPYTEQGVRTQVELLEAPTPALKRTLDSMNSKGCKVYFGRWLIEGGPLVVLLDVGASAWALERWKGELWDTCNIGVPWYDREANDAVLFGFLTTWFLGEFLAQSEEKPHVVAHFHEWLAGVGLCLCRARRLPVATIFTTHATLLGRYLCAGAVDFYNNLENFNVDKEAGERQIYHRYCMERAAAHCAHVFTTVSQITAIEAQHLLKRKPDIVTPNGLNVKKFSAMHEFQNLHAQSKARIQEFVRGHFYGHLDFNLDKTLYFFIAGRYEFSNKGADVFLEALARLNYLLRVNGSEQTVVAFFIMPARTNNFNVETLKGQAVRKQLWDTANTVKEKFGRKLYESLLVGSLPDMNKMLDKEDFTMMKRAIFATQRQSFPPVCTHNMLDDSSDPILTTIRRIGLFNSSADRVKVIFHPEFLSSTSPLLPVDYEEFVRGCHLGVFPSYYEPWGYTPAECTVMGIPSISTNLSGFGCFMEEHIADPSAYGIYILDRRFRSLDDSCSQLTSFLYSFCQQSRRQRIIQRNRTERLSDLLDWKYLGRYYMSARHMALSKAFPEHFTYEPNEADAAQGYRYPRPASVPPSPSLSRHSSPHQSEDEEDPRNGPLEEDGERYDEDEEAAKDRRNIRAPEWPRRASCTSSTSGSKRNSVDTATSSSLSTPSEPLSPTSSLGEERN
UniProt P69905, whole entry, looked up: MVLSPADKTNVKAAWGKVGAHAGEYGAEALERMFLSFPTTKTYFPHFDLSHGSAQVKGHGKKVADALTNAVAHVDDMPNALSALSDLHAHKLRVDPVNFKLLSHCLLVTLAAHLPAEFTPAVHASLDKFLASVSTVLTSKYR
UniProt P16403, whole entry, looked up: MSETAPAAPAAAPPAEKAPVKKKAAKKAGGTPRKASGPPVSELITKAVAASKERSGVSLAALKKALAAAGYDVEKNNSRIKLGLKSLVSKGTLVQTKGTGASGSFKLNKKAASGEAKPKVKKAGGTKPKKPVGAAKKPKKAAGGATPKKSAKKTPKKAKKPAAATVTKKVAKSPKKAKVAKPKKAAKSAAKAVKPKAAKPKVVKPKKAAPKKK
UniProt Q969Y2: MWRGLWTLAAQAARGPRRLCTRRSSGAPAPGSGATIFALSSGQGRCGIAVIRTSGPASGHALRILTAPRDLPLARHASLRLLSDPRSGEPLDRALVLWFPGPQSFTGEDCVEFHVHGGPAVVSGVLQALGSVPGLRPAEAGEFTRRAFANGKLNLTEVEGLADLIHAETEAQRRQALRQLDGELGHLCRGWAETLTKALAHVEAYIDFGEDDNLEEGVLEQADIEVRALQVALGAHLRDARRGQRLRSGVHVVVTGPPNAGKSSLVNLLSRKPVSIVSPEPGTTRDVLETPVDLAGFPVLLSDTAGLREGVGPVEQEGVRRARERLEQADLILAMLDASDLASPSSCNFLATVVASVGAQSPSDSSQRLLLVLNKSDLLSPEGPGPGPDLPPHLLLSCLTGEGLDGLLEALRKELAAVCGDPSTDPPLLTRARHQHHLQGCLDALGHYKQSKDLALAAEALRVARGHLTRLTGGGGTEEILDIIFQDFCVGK
UniProt Q9P0R6: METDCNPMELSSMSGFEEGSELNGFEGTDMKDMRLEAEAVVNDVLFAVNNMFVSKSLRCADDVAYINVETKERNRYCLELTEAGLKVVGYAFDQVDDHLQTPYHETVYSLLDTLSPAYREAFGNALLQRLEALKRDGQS
UniProt O14929: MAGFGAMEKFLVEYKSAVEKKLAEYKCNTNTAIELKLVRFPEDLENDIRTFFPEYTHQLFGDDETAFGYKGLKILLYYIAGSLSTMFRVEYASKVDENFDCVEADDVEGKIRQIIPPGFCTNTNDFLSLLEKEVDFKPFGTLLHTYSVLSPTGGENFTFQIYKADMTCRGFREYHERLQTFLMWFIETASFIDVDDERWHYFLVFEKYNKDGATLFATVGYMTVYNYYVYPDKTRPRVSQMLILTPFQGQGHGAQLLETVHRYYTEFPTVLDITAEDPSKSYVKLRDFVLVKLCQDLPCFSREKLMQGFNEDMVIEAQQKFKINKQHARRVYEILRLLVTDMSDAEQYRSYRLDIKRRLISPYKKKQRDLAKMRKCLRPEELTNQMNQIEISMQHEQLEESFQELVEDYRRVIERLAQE
UniProt Q8WW33: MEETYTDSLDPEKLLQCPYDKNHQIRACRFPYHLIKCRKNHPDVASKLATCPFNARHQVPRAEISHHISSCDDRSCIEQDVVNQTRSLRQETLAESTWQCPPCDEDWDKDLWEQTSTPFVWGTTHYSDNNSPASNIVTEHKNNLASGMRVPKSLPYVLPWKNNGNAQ
UniProt Q16836: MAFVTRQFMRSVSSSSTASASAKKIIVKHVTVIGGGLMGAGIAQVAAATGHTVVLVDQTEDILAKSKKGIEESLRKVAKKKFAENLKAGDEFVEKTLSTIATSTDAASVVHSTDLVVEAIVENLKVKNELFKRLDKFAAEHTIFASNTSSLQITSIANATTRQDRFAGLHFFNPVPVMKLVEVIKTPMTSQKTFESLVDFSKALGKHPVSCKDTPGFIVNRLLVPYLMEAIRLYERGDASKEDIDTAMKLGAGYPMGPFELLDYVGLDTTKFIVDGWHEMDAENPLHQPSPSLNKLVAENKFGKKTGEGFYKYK
UniProt Q9H0R4: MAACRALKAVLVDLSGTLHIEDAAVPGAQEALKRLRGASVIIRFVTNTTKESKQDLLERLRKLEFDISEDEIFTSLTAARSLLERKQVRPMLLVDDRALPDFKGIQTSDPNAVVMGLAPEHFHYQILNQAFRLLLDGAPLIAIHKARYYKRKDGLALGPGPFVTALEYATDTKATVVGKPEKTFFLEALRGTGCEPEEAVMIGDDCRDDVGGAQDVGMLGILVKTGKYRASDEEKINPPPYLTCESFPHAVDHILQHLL
UniProt Q92522: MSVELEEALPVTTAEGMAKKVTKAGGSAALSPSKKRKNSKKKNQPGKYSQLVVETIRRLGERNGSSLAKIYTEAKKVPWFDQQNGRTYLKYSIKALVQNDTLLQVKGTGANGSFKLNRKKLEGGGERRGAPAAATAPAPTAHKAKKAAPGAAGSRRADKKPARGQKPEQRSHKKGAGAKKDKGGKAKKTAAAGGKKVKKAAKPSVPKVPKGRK
UniProt P02724: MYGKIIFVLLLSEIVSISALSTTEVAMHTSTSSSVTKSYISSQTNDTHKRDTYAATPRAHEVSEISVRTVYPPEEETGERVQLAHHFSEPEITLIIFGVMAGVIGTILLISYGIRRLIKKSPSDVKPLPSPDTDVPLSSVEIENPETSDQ
UniProt Q9NRV9: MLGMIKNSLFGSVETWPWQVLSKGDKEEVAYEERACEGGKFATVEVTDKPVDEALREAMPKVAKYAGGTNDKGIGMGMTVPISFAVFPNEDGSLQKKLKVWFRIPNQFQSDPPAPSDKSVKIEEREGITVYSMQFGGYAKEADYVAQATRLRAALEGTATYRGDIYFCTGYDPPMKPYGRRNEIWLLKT
UniProt Q4G148: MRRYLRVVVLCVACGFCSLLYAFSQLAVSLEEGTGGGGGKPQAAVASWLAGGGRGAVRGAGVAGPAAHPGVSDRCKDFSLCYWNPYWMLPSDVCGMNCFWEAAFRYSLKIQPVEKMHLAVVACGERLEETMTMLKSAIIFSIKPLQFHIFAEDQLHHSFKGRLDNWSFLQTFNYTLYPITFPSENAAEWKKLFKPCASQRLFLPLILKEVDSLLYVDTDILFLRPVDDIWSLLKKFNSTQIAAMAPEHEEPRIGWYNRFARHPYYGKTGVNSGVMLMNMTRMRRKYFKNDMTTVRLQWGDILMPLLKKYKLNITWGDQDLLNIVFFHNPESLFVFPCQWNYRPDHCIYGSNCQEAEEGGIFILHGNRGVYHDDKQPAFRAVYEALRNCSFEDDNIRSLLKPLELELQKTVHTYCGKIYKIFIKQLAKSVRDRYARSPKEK
UniProt P69891: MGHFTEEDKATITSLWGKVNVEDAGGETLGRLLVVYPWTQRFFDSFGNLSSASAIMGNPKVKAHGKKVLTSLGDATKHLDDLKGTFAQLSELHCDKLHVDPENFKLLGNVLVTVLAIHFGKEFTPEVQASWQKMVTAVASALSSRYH
UniProt O94992, whole entry, looked up: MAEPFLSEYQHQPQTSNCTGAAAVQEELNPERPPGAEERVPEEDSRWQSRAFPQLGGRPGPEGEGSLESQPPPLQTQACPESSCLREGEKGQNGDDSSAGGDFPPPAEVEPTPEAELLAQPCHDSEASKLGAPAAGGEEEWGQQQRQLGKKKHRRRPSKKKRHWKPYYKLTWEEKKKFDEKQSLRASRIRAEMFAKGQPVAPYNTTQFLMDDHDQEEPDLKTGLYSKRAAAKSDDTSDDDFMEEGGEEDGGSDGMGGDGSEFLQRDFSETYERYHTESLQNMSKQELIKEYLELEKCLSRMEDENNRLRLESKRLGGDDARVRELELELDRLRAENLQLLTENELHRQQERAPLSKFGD
UniProt P53701: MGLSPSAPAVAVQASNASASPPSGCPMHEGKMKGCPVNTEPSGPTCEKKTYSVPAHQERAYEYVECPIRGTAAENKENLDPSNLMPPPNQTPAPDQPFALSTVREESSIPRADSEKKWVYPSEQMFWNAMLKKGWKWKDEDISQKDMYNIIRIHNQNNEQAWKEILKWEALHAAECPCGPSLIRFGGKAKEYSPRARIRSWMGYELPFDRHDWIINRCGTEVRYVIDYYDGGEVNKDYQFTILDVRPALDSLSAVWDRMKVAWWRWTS
UniProt P46976: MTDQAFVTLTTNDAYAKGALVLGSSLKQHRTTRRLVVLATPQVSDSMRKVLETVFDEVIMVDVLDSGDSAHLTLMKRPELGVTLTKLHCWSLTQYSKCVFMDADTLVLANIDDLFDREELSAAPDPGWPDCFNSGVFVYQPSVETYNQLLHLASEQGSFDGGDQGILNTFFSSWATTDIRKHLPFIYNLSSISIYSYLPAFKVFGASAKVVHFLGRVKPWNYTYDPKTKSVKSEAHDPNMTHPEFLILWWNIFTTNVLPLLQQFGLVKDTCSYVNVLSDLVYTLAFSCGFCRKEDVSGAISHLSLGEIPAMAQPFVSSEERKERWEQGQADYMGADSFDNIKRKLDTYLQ
UniProt P0C0S5, whole entry, looked up: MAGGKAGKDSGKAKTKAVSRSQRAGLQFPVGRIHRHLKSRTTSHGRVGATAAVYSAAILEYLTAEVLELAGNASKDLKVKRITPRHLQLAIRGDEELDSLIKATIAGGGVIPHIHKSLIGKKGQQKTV
UniProt P49841: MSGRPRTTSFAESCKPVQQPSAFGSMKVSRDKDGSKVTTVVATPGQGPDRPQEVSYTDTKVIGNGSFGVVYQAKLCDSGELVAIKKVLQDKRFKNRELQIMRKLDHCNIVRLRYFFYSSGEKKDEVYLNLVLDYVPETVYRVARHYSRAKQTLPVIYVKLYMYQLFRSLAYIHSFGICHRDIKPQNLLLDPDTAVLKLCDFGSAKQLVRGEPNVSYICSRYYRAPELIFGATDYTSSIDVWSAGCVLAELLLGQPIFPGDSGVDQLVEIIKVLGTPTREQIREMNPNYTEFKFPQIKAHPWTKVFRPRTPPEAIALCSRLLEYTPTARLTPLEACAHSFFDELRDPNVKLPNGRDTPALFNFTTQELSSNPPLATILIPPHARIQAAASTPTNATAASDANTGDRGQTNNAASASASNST
UniProt Q8N4P3, whole entry, looked up: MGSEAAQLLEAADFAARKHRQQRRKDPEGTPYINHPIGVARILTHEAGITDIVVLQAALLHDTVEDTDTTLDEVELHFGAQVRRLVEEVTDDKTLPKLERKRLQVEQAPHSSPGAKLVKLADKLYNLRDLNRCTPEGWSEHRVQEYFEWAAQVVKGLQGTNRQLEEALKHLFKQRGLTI
UniProt P15170, whole entry, looked up: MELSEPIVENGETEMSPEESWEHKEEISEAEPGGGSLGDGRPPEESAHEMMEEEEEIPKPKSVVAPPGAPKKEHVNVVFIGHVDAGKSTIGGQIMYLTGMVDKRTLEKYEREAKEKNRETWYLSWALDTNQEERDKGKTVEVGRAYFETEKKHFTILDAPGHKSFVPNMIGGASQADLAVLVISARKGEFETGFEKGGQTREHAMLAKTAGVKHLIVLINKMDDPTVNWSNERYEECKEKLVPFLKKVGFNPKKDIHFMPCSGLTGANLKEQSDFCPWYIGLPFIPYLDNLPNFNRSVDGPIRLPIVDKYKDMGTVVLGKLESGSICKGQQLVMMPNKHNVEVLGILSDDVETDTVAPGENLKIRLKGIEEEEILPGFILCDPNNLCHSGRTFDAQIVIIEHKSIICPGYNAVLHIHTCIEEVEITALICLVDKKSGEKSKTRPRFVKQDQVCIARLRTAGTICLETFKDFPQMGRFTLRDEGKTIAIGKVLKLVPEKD
UniProt P02008: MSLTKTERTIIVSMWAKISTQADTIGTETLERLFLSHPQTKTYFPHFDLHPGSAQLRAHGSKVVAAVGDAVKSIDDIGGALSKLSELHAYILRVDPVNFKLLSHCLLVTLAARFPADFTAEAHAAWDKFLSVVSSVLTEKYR

These targets were tested with Cn1cc(-c2ccc3c(c2)CCN3C(=O)Cc2cccc(C(F)(F)F)c2)c2c(N)ncnc21 (assay: log2 fold change, soluble protein after heating vs DMSO (PISA); higher = thermal stabilisation; K562 cells, 10 uM, 30 min; active = over 0.2 and 3.5 SD of the protein, either way, in both replicates (recomputed)).
Summary of the method: (§1)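 For each measurement, 10 μM compound was applied for 30 min to K562 cells at 2×10^6 cells/mL. Aliquots were heated for 3 min across 48°C-58°C, pooled, and extracted in PBS with 0.5% NP-40 at 4°C; the supernatant after 21,000xg for 90 min was soluble protein. This was quantified by TMTpro 16plex LC-MS/MS with channel sums equalised, and thermal stability was reported relative to control samples from duplicates, on a log2 fold-change scale.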
HERC2 (UniProt O95714) was tested, and the log2 fold change was inactive: -0.229. With HAX1 (UniProt O00165) the log2 fold change was inactive: -0.028. For HEBP2 (UniProt Q9Y5Z4), the log2 fold change was inactive: 0.026. For GYS1 (UniProt P13807), the log2 fold change was inactive: -0.266. In the case of HBA1 (UniProt P69905), the log2 fold change is reported as inactive: 0.156. For H1-2 (UniProt P16403), the log2 fold change was inactive: -0.271. In the case of GTPBP3 isoform 2 (UniProt Q969Y2), the log2 fold change is reported as inactive: 0.061. With GSKIP (UniProt Q9P0R6) the log2 fold change was inactive: 0.146. HAT1 (UniProt O14929) was tested, and the log2 fold change was inactive: 0.024. With GTSF1 (UniProt Q8WW33) the log2 fold change was inactive: 0.136. HADH isoform 2 (UniProt Q16836) was tested, and the log2 fold change was inactive: 0.051. For HDHD2 (UniProt Q9H0R4), the log2 fold change was inactive: 0.019. For HDAC6 (UniProt Q9UBN7), the log2 fold change was inactive: 0.055. In the case of GSTP1 (UniProt P09211), the log2 fold change is reported as inactive: 0.032. In the case of H1FX (UniProt Q92522), the log2 fold change is reported as inactive: -0.189. With HCLS1 (UniProt P14317) the log2 fold change was inactive: -0.014. In the case of GYPA (UniProt P02724), the log2 fold change is reported as inactive: 0.118. HEXB (UniProt P07686) was tested, and the log2 fold change was inactive: 0.021. With HAUS4 (UniProt Q9H6D7) the log2 fold change was inactive: -0.045. With HEBP1 (UniProt Q9NRV9) the log2 fold change was inactive: 0.113. With GXYLT1 (UniProt Q4G148) the log2 fold change was inactive: -0.096. In the case of HEMGN (UniProt Q9BXL5), the log2 fold change is reported as inactive: -0.014. For HBG1 (UniProt P69891), the log2 fold change was inactive: 0.141. With HEXIM1 (UniProt O94992) the log2 fold change was inactive: 0.043. HCCS (UniProt P53701) was tested, and the log2 fold change was inactive: 0.036. With GTPBP1 (UniProt O00178) the log2 fold change was inactive: -0.013. For GYG1 (UniProt P46976), the log2 fold change was inactive: -0.06. For GTF2A2 (UniProt P52657), the log2 fold change was inactive: 0.056. HEATR5B (UniProt Q9P2D3) was tested, and the log2 fold change was inactive: -0.029. In the case of H2AZ1 (UniProt P0C0S5), the log2 fold change is reported as inactive: -0.369. GTF2F1 (UniProt P35269) was tested, and the log2 fold change was inactive: -0.015. With GSK3B isoform 2 (UniProt P49841) the log2 fold change was inactive: 0.055. In the case of HDDC3 (UniProt Q8N4P3), the log2 fold change is reported as inactive: 0.012. With GSPT1 isoform 3 (UniProt P15170) the log2 fold change was inactive: 0.032. HELZ (UniProt P42694) was tested, and the log2 fold change was inactive: -0.103. For HBZ (UniProt P02008), the log2 fold change was inactive: 0.137. In the case of HBS1L isoform 2 (UniProt Q9Y450), the log2 fold change is reported as inactive: 0.03. In the case of H1-3 (UniProt P16402), the log2 fold change is reported as inactive: -0.292.

Each target was assayed with Cn1cc(-c2ccc3nnc(C(F)(F)c4ccc5ncccc5c4)n3n2)cn1 in the same assay as above.
Summary of the method: as §1
HERC2 (UniProt O95714) was tested, and the log2 fold change was inactive: -0.061. HAX1 (UniProt O00165) was tested, and the log2 fold change was inactive: -0.068. For HEBP2 (UniProt Q9Y5Z4), the log2 fold change was inactive: 0.038. In the case of GYS1 (UniProt P13807), the log2 fold change is reported as inactive: -0.139. In the case of HBA1 (UniProt P69905), the log2 fold change is reported as active: 0.345. For H1-2 (UniProt P16403), the log2 fold change was inactive: -0.055. With GTPBP3 isoform 2 (UniProt Q969Y2) the log2 fold change was inactive: 0.032. In the case of GSKIP (UniProt Q9P0R6), the log2 fold change is reported as inactive: 0.177. In the case of HAT1 (UniProt O14929), the log2 fold change is reported as inactive: 0.006. For GTSF1 (UniProt Q8WW33), the log2 fold change was inactive: 0.274. With HADH isoform 2 (UniProt Q16836) the log2 fold change was inactive: 0.027. For HDHD2 (UniProt Q9H0R4), the log2 fold change was inactive: 0.028. HDAC6 (UniProt Q9UBN7) was tested, and the log2 fold change was inactive: -0.005. With GSTP1 (UniProt P09211) the log2 fold change was inactive: 0.038. With H1FX (UniProt Q92522) the log2 fold change was inactive: -0.113. HCLS1 (UniProt P14317) was tested, and the log2 fold change was inactive: 0.01. In the case of GYPA (UniProt P02724), the log2 fold change is reported as inactive: -0.164. In the case of HEXB (UniProt P07686), the log2 fold change is reported as inactive: 0.01. HAUS4 (UniProt Q9H6D7) was tested, and the log2 fold change was inactive: -0.051. With HEBP1 (UniProt Q9NRV9) the log2 fold change was inactive: -0.038. In the case of GXYLT1 (UniProt Q4G148), the log2 fold change is reported as inactive: 0.082. For HEMGN (UniProt Q9BXL5), the log2 fold change was inactive: 0.02. HBG1 (UniProt P69891) was tested, and the log2 fold change was inactive: 0.162. In the case of HEXIM1 (UniProt O94992), the log2 fold change is reported as inactive: -0.035. For HCCS (UniProt P53701), the log2 fold change was inactive: 0.067. In the case of GTPBP1 (UniProt O00178), the log2 fold change is reported as inactive: 0.027. For GYG1 (UniProt P46976), the log2 fold change was inactive: -0.11. With GTF2A2 (UniProt P52657) the log2 fold change was inactive: 0.104. For HEATR5B (UniProt Q9P2D3), the log2 fold change was inactive: -0.012. H2AZ1 (UniProt P0C0S5) was tested, and the log2 fold change was inactive: -0.133. For GTF2F1 (UniProt P35269), the log2 fold change was inactive: -0.025. In the case of GSK3B isoform 2 (UniProt P49841), the log2 fold change is reported as inactive: -0.013. With HDDC3 (UniProt Q8N4P3) the log2 fold change was inactive: 0.051. GSPT1 isoform 3 (UniProt P15170) was tested, and the log2 fold change was inactive: 0.036. For HELZ (UniProt P42694), the log2 fold change was inactive: -0.191. For HBZ (UniProt P02008), the log2 fold change was inactive: 0.282. In the case of HBS1L isoform 2 (UniProt Q9Y450), the log2 fold change is reported as inactive: -0.027. H1-3 (UniProt P16402) was tested, and the log2 fold change was inactive: -0.134.
